{"sequences": {"note": "Sequences of proteins named here, by UniProt entry; tags and fusion partners are left off.", "UniProt Q99708": "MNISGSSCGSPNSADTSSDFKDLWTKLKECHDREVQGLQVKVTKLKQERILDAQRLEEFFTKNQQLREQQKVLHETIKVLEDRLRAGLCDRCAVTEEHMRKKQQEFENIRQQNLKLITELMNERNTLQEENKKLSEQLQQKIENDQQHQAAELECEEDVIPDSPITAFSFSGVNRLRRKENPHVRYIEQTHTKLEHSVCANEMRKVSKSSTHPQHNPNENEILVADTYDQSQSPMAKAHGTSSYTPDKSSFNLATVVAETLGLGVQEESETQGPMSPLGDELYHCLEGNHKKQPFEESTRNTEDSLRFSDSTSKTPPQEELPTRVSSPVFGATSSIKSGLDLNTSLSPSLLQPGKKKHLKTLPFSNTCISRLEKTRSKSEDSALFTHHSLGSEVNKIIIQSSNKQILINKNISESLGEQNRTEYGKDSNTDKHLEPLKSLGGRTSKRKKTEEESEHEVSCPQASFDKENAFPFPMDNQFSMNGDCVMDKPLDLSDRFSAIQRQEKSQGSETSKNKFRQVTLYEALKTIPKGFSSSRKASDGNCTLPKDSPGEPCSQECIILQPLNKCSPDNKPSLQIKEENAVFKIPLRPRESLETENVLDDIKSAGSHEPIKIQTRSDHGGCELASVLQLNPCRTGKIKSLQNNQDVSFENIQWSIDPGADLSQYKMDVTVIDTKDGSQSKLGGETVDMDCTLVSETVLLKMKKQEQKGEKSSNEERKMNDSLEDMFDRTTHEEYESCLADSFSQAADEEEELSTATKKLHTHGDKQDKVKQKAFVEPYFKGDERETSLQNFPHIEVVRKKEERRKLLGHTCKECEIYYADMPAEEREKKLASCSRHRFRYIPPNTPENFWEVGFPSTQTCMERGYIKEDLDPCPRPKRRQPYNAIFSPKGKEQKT", "UniProt Q16539": "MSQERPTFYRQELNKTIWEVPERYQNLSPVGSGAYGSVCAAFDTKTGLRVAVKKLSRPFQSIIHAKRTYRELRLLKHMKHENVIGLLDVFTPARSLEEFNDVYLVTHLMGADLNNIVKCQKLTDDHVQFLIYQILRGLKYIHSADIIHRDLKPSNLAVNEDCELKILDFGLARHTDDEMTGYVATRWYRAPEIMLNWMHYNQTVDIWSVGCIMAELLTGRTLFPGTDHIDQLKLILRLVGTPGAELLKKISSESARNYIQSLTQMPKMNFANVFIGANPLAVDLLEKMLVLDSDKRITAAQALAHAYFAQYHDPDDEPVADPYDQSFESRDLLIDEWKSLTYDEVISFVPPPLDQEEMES"}, "source": "paper doi:10.1101/2024.06.25.600562", "target": "endogenous CtIP (human (endogenous in HEK293T)) (UniProt Q99708)", "experiment": "co-IP", "note": "No constants are given. Whether binding was seen depends on the method and setting. In cells and extracts the contact can be indirect. Some results given as binding are weak or reduced against the parent protein; the word gives no strength.", "data": [{"substance": "Myc-p38α (from UniProt Q16539 1-360) (enzyme)", "values": [{"measurement": "binding", "result": "binds"}]}]}
